Source: paper doi:10.1101/2025.01.03.631197
These are yes or no findings as the source states them, for the method shown. Binding seen in cells or lysates may run through a third protein. Some binding calls cover weakened binding; strength is not graded here.

The chains behind the UniProt entries cited, without tags or fusion partners. Residues count along the entry.
UniProt P29317, residues 24-976: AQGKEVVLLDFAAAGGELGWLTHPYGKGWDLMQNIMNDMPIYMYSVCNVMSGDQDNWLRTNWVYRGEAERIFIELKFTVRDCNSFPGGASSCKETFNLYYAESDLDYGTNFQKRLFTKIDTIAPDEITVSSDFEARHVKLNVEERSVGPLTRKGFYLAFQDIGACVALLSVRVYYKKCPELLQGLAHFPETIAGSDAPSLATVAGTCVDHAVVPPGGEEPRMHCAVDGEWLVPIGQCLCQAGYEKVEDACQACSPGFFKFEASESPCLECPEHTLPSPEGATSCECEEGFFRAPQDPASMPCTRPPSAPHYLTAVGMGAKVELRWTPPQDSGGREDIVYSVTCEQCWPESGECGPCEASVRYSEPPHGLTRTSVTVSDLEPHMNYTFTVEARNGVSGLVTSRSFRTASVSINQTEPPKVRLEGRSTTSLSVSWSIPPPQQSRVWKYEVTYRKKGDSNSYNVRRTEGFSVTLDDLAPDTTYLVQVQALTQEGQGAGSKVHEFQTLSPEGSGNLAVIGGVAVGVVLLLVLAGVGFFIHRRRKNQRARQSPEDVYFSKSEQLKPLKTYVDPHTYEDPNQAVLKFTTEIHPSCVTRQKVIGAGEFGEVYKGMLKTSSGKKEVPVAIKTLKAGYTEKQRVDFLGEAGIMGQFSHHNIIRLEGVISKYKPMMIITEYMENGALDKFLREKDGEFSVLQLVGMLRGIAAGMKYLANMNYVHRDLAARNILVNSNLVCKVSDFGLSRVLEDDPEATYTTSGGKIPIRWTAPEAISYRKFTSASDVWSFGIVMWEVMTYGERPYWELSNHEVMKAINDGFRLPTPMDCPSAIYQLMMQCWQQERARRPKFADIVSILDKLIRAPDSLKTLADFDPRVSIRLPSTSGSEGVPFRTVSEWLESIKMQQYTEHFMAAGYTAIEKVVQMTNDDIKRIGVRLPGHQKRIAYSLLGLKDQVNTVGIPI

Biological target: PSmOrange-C1-EPHA2 (UniProt P29317)
Assay: FRET or BRET

B1: mT-Sapphire-C1-Ephrin-B1 (ligand, UniProt P52795 25-345)
chain: ATPLAKNLEPVSWSSLNPKFLSGKGLVIYPKIGDKLDIICPRAEAGRPYEYYKLYLVRPEQAAACSTVLDPNVLVTCNKPHQEIRFTIKFQEFSPNYMGLEFKKYHDYYITSTSNGSLEGLENREGGVCRTRTMKIVMKVGQDPNAVTPEQLTTSRPSKESDNTVKTATQAPGRGSQGDSDGKHETVNQEEKSGPGAGGGGSGDSDSFFNSKVALFAAVGAGCVIFLLIIIFLTVLLLKLRKRHRKHTQQRAAALSLSTLASPKGGSGTAGTEPSDIIIPLRTTENNYCPHYEKVSGDYGHPVYIVQEMPPQSPANIYYKV
binding: binds
